# According to PubChem BioAssay AID652054 (National Center for Advancing Translational Sciences (NCATS), 2013):
# Sequences of proteins named here, by UniProt entry; tags and fusion partners are left off.
# UniProt P35462, whole entry, looked up: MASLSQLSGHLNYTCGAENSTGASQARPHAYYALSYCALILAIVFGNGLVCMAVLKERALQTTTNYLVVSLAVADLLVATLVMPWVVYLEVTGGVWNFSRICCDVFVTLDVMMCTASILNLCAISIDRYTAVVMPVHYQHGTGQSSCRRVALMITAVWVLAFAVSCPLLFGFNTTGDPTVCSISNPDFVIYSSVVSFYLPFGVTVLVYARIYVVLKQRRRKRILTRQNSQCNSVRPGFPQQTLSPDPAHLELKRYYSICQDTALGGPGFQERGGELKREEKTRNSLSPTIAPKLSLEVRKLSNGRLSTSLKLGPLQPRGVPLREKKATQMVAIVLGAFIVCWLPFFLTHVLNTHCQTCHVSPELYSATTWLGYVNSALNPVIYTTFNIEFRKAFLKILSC
# The whole screen tested about 360,000 compounds, of which about 9,100 (2.5%) were called active. Inconclusive means that the source gave no clear call. Such entries were picked first, then a sample of the others. Rule as the data show it: active = max response below about -50%; inconclusive = no clear call, values can overlap the other calls; inactive = above that. Some compounds were tested as several samples or in several runs, with calls that do not always agree.
# Molecular target: D(3) dopamine receptor (Homo sapiens) (UniProt P35462)
# Assay: qHTS of D3 Dopamine Receptor Antagonist: qHTS
# Details: D3R cells, DiscoveRx beta-arrestin luminescence, antagonist mode; hits give low values
# Procedure, shortened: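 Cells plated overnight at 1500 cells/well, then exposed to library compounds with dopamine controls for 90 minutes at 37 degrees C. DiscoveRx reagent added for 30–60 minutes at room temperature; luminescence read, quantitative HTS format.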
# % is scaled to controls: 0 for no effect and ±100 for the full control effect.
row,Structure (SMILES),"max response, negative = inhibition"
1,CCN(CC)CCNC(=O)c1cc2cc(Br)ccc2s1,inconclusive: -45.6%
2,COc1ccc(-c2cc(CCC(=O)N3CCN(c4cc(C)ccc4C)CC3)[nH]n2)cc1,inactive: 63.3%
3,Cc1ccc(NC(=S)NCCO)c(C)c1,active: -56.4%
4,CC1CC(C)CN(C(C(=O)NC2CCCCC2)c2cc3ccccc3o2)C1 (configuration not stated),inactive: 0%
5,O=C(OCc1ccccc1)N1CCCCC1c1c(Cl)cccc1Br (configuration not stated),inconclusive: -41.8%
6,CC(C)(C)n1nnnc1C(C1CC1)N1CCN(C/C=C/c2ccccc2)CC1 (configuration not stated),inconclusive: -35.4%
7,Cc1ccc(S(=O)(=O)N2C[C@@H]3[C@H]4CC[C@H](C4)[C@@H]3[C@@H](C)[C@H]2c2ccn(Cc3ccccc3)c2)cc1,inconclusive: -35.3%
8,Cc1ccc(C)n1-c1ccc(NC(=O)c2ccccc2)cc1,inconclusive: -41.4%
9,COc1ccccc1NS(=O)(=O)c1cc(C(=O)NC2CCN(Cc3ccccc3)CC2)ccc1C,active: -92%
10,COc1cccc(CN(Cc2ccco2)C(c2ccc(F)cc2)c2nnnn2C(C)(C)C)c1 (configuration not stated),inconclusive: -44.5%
11,O=C(CCS(=O)(=O)c1ccccc1)Nc1ccc(N2CCN(Cc3ccccc3)CC2)cc1,inactive: -14.3%
12,CCN(CC)c1ccc(/C=C/c2cccc[n+]2C)c(OC)c1,inconclusive: -33.7%
13,CCCCCNCc1cccn1C,inconclusive: -38.6%
14,COCC(C)n1c(C)cc(C(=O)COC(=O)CN=C2NS(=O)(=O)c3ccccc32)c1C (configuration not stated),inconclusive: -37%
15,CC(C)c1ccc(CNCc2ccccc2)cc1,inconclusive: -45.2%
16,CCOc1c(C)cnc2c1c(=O)n(Cc1ccc(Cl)cc1)c(=O)n2C,inconclusive: -37.5%
17,O=C(c1ccc(Br)cc1)N(c1ccccn1)C1CCCCC1,inactive: 19.8%
18,O=C(c1ccccc1)c1ccccc1N1C(=O)C=CC1=O,inconclusive: -31.1%
19,CC(=O)c1ccc(OCC(O)CN2CCN(Cc3ccc4c(c3)OCO4)CC2)cc1 (configuration not stated),active: -50.9%

row,Structure (SMILES),"max response, negative = inhibition"
1,Cc1ccccc1Nc1c(-c2ccccn2)nc2ccccn12,inconclusive: -36.2%
2,CCn1c(=N)n(CC(=O)c2ccco2)c2ccccc21,inactive: -4.36%
3,C/C(=N\NC(N)=S)C1C2C3CC4C5CC(C42)C1C53 (configuration not stated),inconclusive: -32.2%
4,Cc1ccc(Oc2c(C=O)c3ccccc3n2C)cc1,inconclusive: -43%
5,c1ccc2oc(-c3[nH]ncc3CN3CCC(N4CCSCC4)CC3)cc2c1,inactive: 1.89%
6,CC(C)(C)c1nc2scc(-c3ccc(Cl)cc3)c2c(=O)o1,inconclusive: -45.5%
7,CCCN(CC(=O)Nc1ccccc1C)C(=O)c1cc2ccccc2oc1=O,inactive: 2.05%
8,NC(=O)c1cc(Br)cc2c3c([nH]c12)CCCC3,inactive: 12.9%
9,Cc1ccc(CN2C(=O)C(CC(C)C)Nc3ncnc(N4CCCCC4)c32)cc1 (configuration not stated),inactive: 16.5%
10,COc1ccc2c(c1)OC[C@H]1[C@H]2N2C(=O)c3cc(Cl)ccc3NC(=O)[C@@]2(C)[C@H]1c1ccccc1,inconclusive: -42.9%
11,COc1cc(OC)c(CN2CCN(c3ccc(F)cc3)CC2)cc1Br,active: -74%
12,O=C(c1ccccc1NS(=O)(=O)c1ccc(Br)s1)N1CCCC1,inconclusive: -32.5%
13,C=C(C)Cn1c(-c2ccccc2)nc2ccccc21,inconclusive: -46.1%
14,CN(C)CCC(=O)C(Cc1ccccc1)c1ccccc1 (configuration not stated),active: -112%
15,C#CCOCCOCCOCCNc1nc(N2CCOCC2)nc(N2CCN(C(=O)[C@H]([C@@H](C)CC)n3cc([C@@H](N)CO)nn3)CC2)n1,inconclusive: -43.8%
16,Cc1nn(-c2ccccc2)c2c1/C(=N/O)CC(C)(C)C2,inactive: 6.21%
17,FC(F)C(F)(F)c1cc(-c2ccc(Cl)cc2)n[nH]1,inactive: 2%
18,CC(=O)c1ccc(OC2(C)CCN(Cc3ccc(C)cc3)C2)cc1 (configuration not stated),active: -102%
19,COc1ccc2c(C#N)c3ccccn3c2c1,inactive: 28.7%

row,Structure (SMILES),"max response, negative = inhibition"
1,COc1ccc(C(c2c(C)[nH]n(C(N)=S)c2=O)C(C#N)C#N)cc1 (configuration not stated),inconclusive: -33.5%
2,CNc1nc(-c2c[nH]c3ccccc23)cs1,inconclusive: -35%
3,CCCCCCCCN1C(=O)[C@H](CC(=O)NCc2ccc(OC)c(OC)c2)C[C@@]2(C(=O)OCC)CCC=C12,inactive: -24.7%
4,N#CCCn1cc(C=C(C#N)C#N)c(-c2ccc(-c3ccccc3)cc2)n1,inconclusive: -34.1%
5,Cc1ccc(NC(=O)COC(=O)c2ccc(NC(=O)CC#N)cc2)cc1S(=O)(=O)N1CCOCC1,active: -52.5%
6,Cc1ccc2cc(-c3noc(C(C)(C)C)n3)c(=O)[nH]c2c1,inactive: 6.27%
7,Cc1ccc(CS(=O)(=O)CCC(=O)NCCCN2CCCC2)cc1,inconclusive: -30.8%
8,N#Cc1cccc(S(=O)(=O)N2CCN(c3ccnc4cc(Cl)ccc34)CC2)c1,inactive: 13.8%
9,C/C(=C\c1ccccc1)CN1CCN(C(C)C)C(CCO)C1 (configuration not stated),inconclusive: -42.6%
10,O=C(Oc1ccc(-n2cnnn2)cc1)c1ccccc1,inconclusive: -41.8%
11,Cc1ccc(N2C(=O)c3ccc(C(=O)O)cc3C2=O)cc1C,inactive: 20.1%
12,C=C(C)c1cccc(C(C)(C)NC(=O)N2CCN(C)CC2)c1,inactive: -18.2%
13,CC(=O)Oc1ccc(-c2csc(Nc3ccc(S(N)(=O)=O)cc3)n2)cc1,inactive: 10.7%
14,CSc1nc2ccccc2n1C(=O)NC1CCCCC1,inconclusive: -30.5%
15,S=c1[nH]nc(-c2ccc3ccccc3n2)n1-c1ccc2c(c1)OCCO2,inconclusive: -47.9%
16,COc1ccccc1CCN1CCCC(CN(C)C(=O)c2ccco2)C1 (configuration not stated),inconclusive: -38.8%
17,Cc1cc(C(=O)Nc2cccc3c2O[C@@H](CN(C)S(C)(=O)=O)[C@H](C)CN([C@@H](C)CO)C3=O)n(C)n1,inconclusive: -31.1%
18,CC(C)CNC(=S)NNC(=O)c1ccccc1OC(F)F,inconclusive: -34.4%
19,CC(NC(=O)c1ccccc1F)c1cccc2ccccc12 (configuration not stated),inconclusive: -49.2%

# Compounds listed so far that contain a thiophene ring, fused or not (3):
row,Structure (SMILES),"max response, negative = inhibition"
1,CCN(CC)CCNC(=O)c1cc2cc(Br)ccc2s1,inconclusive: -45.6%
6,CC(C)(C)c1nc2scc(-c3ccc(Cl)cc3)c2c(=O)o1,inconclusive: -45.5%
12,O=C(c1ccccc1NS(=O)(=O)c1ccc(Br)s1)N1CCCC1,inconclusive: -32.5%
